This is one part of the list.

Sequences of proteins named here, by UniProt entry; tags and fusion partners are left off. A change or cut given only in a name is not applied to a line headed by its entry.
UniProt Q92522: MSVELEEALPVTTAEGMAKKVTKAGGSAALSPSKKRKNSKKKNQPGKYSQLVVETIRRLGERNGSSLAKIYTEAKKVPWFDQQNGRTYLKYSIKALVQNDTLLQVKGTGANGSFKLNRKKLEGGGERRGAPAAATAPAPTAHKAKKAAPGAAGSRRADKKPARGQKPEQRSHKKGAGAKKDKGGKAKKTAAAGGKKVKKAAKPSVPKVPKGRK
UniProt Q9BXW7: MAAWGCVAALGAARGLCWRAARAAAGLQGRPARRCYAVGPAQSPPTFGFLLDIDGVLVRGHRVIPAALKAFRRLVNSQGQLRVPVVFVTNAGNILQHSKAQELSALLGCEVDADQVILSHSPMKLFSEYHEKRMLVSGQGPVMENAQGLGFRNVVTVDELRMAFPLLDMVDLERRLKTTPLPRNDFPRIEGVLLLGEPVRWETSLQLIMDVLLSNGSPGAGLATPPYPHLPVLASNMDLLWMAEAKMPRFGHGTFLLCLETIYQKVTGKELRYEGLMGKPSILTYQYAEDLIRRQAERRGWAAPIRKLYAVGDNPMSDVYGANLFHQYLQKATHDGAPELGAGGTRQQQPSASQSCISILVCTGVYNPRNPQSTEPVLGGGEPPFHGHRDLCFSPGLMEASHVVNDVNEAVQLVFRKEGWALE
UniProt Q16774: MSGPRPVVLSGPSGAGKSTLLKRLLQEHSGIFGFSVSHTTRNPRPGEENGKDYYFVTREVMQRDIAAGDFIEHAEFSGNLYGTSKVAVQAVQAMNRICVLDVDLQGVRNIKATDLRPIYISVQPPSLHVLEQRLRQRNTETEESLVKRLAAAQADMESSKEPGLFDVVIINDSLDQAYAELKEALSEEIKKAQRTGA
UniProt P16402, whole entry, looked up: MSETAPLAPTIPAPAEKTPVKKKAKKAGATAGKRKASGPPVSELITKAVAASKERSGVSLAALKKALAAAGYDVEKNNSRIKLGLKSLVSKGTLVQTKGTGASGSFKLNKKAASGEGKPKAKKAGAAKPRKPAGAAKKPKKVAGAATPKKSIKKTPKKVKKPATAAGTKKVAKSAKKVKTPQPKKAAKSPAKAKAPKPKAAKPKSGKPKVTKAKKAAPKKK
UniProt Q969F1: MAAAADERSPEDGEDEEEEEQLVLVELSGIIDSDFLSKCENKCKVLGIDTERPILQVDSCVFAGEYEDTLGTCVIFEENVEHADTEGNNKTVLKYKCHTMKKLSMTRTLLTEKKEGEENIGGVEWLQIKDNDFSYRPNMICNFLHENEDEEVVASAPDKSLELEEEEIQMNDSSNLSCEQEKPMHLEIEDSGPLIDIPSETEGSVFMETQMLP
UniProt Q86XA9: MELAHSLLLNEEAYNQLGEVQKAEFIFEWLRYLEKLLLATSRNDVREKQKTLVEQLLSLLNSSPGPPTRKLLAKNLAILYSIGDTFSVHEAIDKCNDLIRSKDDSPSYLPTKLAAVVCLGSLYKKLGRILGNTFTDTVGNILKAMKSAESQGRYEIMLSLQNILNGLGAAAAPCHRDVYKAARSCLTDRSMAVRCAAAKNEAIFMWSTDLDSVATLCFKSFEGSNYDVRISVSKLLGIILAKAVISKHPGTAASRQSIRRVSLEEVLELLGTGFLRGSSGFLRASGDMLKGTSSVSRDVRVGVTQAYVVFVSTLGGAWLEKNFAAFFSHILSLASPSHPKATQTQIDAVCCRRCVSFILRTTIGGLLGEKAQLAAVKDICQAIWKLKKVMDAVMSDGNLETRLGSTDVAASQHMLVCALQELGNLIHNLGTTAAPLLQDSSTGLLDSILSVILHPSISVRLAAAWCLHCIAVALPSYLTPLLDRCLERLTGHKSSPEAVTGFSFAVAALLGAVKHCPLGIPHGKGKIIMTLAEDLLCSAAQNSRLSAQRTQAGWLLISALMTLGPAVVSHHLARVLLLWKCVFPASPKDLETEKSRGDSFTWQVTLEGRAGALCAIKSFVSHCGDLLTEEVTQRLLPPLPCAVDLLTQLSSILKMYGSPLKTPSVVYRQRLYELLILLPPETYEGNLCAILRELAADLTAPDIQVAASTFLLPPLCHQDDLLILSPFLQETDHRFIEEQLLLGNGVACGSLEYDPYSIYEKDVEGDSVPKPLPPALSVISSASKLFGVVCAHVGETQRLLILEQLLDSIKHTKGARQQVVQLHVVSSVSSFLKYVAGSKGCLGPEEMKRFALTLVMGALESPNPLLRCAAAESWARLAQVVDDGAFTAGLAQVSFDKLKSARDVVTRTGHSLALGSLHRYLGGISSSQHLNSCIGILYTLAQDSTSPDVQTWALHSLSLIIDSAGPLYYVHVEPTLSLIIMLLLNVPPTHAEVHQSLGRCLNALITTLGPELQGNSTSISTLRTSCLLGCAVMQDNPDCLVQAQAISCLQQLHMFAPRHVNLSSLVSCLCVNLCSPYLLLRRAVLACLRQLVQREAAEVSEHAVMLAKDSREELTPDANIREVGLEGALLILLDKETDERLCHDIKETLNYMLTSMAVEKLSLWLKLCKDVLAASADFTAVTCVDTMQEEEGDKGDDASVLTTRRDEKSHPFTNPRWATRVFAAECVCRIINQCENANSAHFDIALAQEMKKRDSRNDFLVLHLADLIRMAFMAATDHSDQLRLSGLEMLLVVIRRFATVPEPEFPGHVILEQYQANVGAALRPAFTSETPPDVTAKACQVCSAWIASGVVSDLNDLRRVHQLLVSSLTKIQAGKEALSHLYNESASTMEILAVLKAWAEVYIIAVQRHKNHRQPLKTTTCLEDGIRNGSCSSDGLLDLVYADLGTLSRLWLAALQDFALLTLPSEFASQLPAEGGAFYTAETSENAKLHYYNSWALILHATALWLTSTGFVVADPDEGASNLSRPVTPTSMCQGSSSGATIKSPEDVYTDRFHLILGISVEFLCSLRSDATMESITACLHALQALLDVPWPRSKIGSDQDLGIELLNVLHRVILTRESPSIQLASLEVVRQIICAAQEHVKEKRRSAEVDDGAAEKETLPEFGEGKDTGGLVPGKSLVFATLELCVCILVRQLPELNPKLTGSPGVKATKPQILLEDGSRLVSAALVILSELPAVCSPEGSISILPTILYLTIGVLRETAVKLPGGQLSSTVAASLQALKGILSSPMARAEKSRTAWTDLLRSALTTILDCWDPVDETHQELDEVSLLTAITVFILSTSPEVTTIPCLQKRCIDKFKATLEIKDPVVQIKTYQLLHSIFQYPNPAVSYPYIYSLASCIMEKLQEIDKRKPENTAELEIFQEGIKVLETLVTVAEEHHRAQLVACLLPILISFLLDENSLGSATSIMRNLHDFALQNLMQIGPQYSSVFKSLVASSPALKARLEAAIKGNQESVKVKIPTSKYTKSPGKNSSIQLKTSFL
UniProt P12081: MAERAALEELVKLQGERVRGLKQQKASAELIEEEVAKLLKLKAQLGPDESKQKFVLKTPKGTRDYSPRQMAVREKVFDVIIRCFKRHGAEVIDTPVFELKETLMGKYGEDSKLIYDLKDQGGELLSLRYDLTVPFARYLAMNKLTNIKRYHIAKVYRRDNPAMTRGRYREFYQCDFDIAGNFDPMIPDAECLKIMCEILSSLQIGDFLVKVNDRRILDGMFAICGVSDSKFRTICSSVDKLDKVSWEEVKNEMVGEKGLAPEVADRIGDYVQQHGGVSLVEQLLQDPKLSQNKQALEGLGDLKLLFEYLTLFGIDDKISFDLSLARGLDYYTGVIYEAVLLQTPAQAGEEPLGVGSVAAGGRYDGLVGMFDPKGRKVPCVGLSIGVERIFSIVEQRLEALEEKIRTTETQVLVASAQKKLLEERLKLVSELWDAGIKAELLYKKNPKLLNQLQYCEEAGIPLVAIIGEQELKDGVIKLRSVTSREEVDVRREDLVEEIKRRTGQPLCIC
UniProt Q8NG08: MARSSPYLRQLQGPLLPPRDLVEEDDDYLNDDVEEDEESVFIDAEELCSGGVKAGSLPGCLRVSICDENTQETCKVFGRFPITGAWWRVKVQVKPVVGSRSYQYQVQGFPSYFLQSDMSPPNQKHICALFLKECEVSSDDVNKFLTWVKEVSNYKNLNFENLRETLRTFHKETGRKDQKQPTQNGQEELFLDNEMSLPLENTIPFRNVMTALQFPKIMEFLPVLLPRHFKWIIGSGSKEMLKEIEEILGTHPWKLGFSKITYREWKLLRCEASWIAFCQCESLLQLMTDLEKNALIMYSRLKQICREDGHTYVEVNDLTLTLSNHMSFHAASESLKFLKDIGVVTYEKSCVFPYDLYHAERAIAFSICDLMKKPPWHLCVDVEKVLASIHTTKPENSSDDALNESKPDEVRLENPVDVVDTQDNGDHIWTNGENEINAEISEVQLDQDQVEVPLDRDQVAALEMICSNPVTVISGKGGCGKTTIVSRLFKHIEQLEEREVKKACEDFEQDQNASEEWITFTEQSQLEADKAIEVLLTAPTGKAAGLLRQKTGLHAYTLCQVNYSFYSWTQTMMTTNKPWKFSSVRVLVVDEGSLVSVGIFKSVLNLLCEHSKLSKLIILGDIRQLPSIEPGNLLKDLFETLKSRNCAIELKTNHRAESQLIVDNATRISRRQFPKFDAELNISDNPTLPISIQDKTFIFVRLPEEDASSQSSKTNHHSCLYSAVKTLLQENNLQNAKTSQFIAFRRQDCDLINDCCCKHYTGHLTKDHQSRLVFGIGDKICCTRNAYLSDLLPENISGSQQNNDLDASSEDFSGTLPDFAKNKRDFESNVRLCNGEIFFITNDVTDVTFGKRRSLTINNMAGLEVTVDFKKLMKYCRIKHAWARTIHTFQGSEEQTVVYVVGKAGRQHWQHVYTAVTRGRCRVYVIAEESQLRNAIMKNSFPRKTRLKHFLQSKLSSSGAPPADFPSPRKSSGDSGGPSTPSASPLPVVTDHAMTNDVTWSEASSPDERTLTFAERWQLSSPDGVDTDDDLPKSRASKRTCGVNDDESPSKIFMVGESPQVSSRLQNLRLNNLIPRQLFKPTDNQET
UniProt Q92664: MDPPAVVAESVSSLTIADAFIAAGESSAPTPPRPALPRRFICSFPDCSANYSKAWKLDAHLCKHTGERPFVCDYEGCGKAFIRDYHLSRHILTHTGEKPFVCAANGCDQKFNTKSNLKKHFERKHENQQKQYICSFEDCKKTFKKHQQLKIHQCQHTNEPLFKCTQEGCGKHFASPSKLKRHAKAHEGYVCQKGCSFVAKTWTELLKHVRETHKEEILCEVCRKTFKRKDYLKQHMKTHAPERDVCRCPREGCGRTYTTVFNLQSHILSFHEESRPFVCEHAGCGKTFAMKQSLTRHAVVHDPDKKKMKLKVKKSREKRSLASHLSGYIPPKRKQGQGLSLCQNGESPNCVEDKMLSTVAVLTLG
UniProt Q8TDG4: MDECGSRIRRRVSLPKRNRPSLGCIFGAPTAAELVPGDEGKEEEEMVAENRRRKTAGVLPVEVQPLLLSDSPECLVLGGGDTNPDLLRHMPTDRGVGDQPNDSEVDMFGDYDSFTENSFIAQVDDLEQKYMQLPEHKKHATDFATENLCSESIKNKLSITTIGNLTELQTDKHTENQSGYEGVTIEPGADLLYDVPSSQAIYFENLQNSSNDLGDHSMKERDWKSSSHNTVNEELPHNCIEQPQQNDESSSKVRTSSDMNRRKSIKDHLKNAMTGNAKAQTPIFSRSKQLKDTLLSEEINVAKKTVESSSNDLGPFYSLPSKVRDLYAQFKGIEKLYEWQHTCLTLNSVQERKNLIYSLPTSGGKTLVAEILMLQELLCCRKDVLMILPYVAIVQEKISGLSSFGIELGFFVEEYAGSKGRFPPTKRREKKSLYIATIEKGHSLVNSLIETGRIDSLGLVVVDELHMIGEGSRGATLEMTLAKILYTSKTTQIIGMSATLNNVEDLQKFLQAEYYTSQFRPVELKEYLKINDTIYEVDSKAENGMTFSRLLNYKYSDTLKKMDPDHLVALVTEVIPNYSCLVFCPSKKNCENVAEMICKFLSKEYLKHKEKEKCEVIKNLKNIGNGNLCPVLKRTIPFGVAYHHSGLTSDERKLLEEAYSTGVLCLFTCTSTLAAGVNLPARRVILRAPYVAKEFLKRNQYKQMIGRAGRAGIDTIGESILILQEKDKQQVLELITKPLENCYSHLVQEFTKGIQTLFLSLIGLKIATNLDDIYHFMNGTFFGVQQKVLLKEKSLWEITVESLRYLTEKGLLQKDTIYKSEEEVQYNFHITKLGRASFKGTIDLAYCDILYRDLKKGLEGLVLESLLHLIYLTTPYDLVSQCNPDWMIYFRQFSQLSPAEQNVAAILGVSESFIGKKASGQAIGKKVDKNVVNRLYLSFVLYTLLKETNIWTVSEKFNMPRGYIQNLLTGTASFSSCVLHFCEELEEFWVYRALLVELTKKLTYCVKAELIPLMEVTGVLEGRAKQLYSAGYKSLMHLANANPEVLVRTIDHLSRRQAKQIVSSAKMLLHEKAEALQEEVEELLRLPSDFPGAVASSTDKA
UniProt P10412, whole entry, looked up: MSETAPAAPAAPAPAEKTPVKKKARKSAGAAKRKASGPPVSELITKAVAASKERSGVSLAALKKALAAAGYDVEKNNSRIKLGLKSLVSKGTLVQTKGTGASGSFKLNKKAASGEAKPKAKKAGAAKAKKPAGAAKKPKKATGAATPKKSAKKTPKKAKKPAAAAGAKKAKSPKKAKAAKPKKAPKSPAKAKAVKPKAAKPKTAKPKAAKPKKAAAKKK

Compound in the first test: CC1=C2C(=CC=C1)N=C(N(C2=O)C3=CC=CC=C3C)CN4C=NC5=C(N=CN=C54)N
The experiment in a line: log2 fold change, soluble protein after heating vs DMSO (PISA); higher = thermal stabilisation; K562 cells, 10 uM, 30 min; active = over 0.2 and 3.5 SD of the protein, either way, in both replicates (recomputed). In a few lines:
(§1)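 Thermal stability values are relative to control samples and come from duplicates. They are expressed as log2 fold changes. For measurement, K562 cells (2×10^6 cells/mL) received 10 μM compound for 30 min, and aliquots were heated for 3 min over 48°C-58°C, pooled, and extracted at 4°C in PBS with 0.5% NP-40. Soluble protein, the supernatant after 21,000xg for 90 min, was quantified by TMTpro 16plex LC-MS/MS with equalised channel sums.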
With H1FX (UniProt Q92522), the log2 fold change was inactive: -0.21.

Consider HDHD5 (UniProt Q9BXW7), for which the log2 fold change is inactive: 0.066.

Turning to GUK1 isoform 2 (UniProt Q16774), the log2 fold change was inactive: 0.084.

For the target H1-3 (UniProt P16402), the log2 fold change was inactive: -0.299.

GTF3C6 (UniProt Q969F1): the log2 fold change was inactive: 0.065.

HEATR5A (UniProt Q86XA9): the log2 fold change is inactive: 0.11.

For HARS (UniProt P12081), the log2 fold change is inactive: -0.015.

On to HELB (UniProt Q8NG08), for which the log2 fold change was inactive: -0.015.

Turning to GTF3A (UniProt Q92664), the log2 fold change was inactive: 0.08.

Compound in a further test: Cc1sc2c(c1C)C(c1ccc(Cl)cc1)=N[C@@H](CC(=O)OC(C)(C)C)c1nnc(C)n1-2
The description is as above. In outline:
as §1
With H3-3A (UniProt P84243), the log2 fold change is inactive: -0.058.

GSS (UniProt P48637): the log2 fold change is inactive: -0.004.

For HDAC3 isoform 2 (UniProt O15379), the log2 fold change is inactive: -0.016.

For the target GTF2H3 (UniProt Q13889), the log2 fold change is inactive: 0.048.

Consider HDGFL3 (UniProt Q9Y3E1), for which the log2 fold change is inactive: -0.02.

With GTF2B (UniProt Q00403), the log2 fold change was inactive: 0.017.

As for GTF3C1 (UniProt Q12789), the log2 fold change is inactive: -0.021.

Turning to HACD3 (UniProt Q9P035), the log2 fold change is inactive: -0.047.

HCFC1 isoform 4 (UniProt P51610): the log2 fold change was inactive: -0.004.

With HELQ (UniProt Q8TDG4), the log2 fold change is inactive: -0.03.

Consider HDGF (UniProt P51858), for which the log2 fold change is inactive: -0.015.

For HEATR3 (UniProt Q7Z4Q2), the log2 fold change is inactive: 0.004.

Regarding HAT1 (UniProt O14929), the log2 fold change was inactive: -0.101.

On to GTF2A2 (UniProt P52657), for which the log2 fold change was inactive: -0.064.

Consider GTPBP6 (UniProt O43824), for which the log2 fold change was inactive: -0.062.

Turning to HEXA (UniProt P06865), the log2 fold change was inactive: -0.018.

With GYG1 (UniProt P46976), the log2 fold change was inactive: -0.008.

For H1-4 (UniProt P10412), the log2 fold change was inactive: 0.067.

As for GTF2F1 (UniProt P35269), the log2 fold change is inactive: -0.037.

With HEMGN (UniProt Q9BXL5), the log2 fold change was inactive: -0.006.

Take HAGH (UniProt Q16775): the log2 fold change was inactive: -0.02.

Take GYPC (UniProt P04921): the log2 fold change was inactive: 0.099.

Consider GTPBP10 (UniProt A4D1E9), for which the log2 fold change is inactive: 0.013.

With GSTO1 (UniProt P78417), the log2 fold change is inactive: -0.013.

On to H1FX (UniProt Q92522), for which the log2 fold change is inactive: 0.135.

With HDHD5 (UniProt Q9BXW7), the log2 fold change was inactive: 0.021.

Turning to GUK1 isoform 2 (UniProt Q16774), the log2 fold change is inactive: -0.021.

For the target H1-3 (UniProt P16402), the log2 fold change was inactive: 0.025.

Consider GTF3C6 (UniProt Q969F1), for which the log2 fold change is inactive: 0.056.

For the target HEATR5A (UniProt Q86XA9), the log2 fold change is inactive: -0.055.

In the case of HARS (UniProt P12081), the log2 fold change was inactive: 0.009.

Regarding HELB (UniProt Q8NG08), the log2 fold change was inactive: -0.009.

In the case of GTF3A (UniProt Q92664), the log2 fold change is inactive: -0.072.

Compound in another test: c1ccc([C@@H]2C[C@H]2NC2CCNCC2)cc1
The description is as above. In a few lines:
as §1
With H3-3A (UniProt P84243), the log2 fold change is inactive: -0.102.

As to GSS (UniProt P48637), the log2 fold change was inactive: 0.006.

With HDAC3 isoform 2 (UniProt O15379), the log2 fold change is inactive: -0.006.

For the target GTF2H3 (UniProt Q13889), the log2 fold change is inactive: 0.017.

Take HDGFL3 (UniProt Q9Y3E1): the log2 fold change is inactive: 0.111.

With GTF2B (UniProt Q00403), the log2 fold change was inactive: -0.002.

With GTF3C1 (UniProt Q12789), the log2 fold change is inactive: 0.06.

As for HACD3 (UniProt Q9P035), the log2 fold change is inactive: 0.05.

For HCFC1 isoform 4 (UniProt P51610), the log2 fold change was inactive: -0.046.

HELQ (UniProt Q8TDG4): the log2 fold change was inactive: 0.136.

Regarding HDGF (UniProt P51858), the log2 fold change is inactive: 0.017.

HEATR3 (UniProt Q7Z4Q2): the log2 fold change was inactive: -0.04.

HAT1 (UniProt O14929): the log2 fold change was inactive: -0.05.

For GTF2A2 (UniProt P52657), the log2 fold change is inactive: -0.017.

In the case of GTPBP6 (UniProt O43824), the log2 fold change was inactive: -0.034.

HEXA (UniProt P06865): the log2 fold change is inactive: 0.024.

GYG1 (UniProt P46976): the log2 fold change is inactive: -0.019.

Turning to H1-4 (UniProt P10412), the log2 fold change is inactive: 0.

Regarding GTF2F1 (UniProt P35269), the log2 fold change is inactive: -0.04.

HEMGN (UniProt Q9BXL5): the log2 fold change was inactive: 0.013.

Turning to HAGH (UniProt Q16775), the log2 fold change is inactive: -0.088.

On to GYPC (UniProt P04921), for which the log2 fold change was inactive: -0.406.

As for GTPBP10 (UniProt A4D1E9), the log2 fold change is inactive: 0.037.

With GSTO1 (UniProt P78417), the log2 fold change was inactive: 0.007.

With H1FX (UniProt Q92522), the log2 fold change was inactive: -0.005.

Take HDHD5 (UniProt Q9BXW7): the log2 fold change is inactive: -0.02.

Take GUK1 isoform 2 (UniProt Q16774): the log2 fold change was inactive: 0.031.

As to H1-3 (UniProt P16402), the log2 fold change is inactive: 0.

Take GTF3C6 (UniProt Q969F1): the log2 fold change was inactive: 0.116.

For HEATR5A (UniProt Q86XA9), the log2 fold change was inactive: -0.082.

As for HARS (UniProt P12081), the log2 fold change is inactive: 0.022.

As for HELB (UniProt Q8NG08), the log2 fold change was inactive: -0.076.

Regarding GTF3A (UniProt Q92664), the log2 fold change was inactive: -0.071.

The values above are taken from the supplement of paper PMC10849652.
